# Some of the results follow.
# Amino acid sequences for entries named in this document (tags omitted). A change or cut given only in a name is not applied to a line headed by its entry.
# UniProt P50750, whole entry, looked up: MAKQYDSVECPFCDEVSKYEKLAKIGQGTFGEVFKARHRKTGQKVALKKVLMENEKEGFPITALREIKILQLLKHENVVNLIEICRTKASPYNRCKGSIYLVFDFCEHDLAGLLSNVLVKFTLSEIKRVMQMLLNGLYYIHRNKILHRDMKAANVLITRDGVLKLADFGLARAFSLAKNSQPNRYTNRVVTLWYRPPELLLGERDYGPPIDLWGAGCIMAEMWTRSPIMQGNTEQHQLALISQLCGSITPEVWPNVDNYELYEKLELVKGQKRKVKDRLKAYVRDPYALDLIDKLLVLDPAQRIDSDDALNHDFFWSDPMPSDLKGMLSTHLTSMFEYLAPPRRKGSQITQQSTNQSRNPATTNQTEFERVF
# UniProt Q9H3R5: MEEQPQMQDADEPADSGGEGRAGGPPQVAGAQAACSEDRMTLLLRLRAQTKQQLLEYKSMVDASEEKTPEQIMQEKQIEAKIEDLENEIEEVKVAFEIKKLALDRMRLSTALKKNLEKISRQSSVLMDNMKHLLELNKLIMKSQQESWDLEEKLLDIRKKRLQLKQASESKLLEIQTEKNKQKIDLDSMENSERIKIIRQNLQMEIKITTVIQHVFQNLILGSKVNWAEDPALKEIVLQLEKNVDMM
# UniProt Q9BU64: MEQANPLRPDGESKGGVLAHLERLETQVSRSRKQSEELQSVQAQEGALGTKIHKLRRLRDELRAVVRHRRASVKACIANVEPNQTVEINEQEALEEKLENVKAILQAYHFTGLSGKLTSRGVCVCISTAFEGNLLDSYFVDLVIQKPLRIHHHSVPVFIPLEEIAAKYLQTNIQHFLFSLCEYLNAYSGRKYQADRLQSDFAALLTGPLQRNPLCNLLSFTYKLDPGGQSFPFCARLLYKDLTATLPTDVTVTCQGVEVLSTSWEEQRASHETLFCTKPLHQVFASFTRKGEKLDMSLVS
# UniProt Q8WUX2: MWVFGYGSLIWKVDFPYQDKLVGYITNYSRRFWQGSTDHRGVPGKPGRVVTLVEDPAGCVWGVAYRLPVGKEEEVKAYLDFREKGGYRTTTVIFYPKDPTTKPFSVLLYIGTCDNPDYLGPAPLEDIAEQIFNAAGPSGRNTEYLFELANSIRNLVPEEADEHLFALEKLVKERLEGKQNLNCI
# UniProt Q9Y5P4: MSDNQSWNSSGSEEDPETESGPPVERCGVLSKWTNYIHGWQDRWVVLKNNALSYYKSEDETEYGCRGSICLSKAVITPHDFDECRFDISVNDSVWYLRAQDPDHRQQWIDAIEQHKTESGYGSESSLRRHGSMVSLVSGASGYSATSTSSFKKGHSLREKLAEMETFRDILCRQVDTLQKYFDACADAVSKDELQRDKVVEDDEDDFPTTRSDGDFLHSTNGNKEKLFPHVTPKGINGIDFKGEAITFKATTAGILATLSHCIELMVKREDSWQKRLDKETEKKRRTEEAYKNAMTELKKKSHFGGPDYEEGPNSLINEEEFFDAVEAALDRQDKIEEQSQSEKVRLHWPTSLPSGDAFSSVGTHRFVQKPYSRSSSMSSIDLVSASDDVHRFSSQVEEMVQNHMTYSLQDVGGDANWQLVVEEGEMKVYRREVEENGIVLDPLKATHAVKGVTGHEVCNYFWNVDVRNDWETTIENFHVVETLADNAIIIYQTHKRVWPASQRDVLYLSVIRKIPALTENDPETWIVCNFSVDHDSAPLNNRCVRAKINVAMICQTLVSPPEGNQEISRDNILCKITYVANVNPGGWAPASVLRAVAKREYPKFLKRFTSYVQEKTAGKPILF
# UniProt Q15517: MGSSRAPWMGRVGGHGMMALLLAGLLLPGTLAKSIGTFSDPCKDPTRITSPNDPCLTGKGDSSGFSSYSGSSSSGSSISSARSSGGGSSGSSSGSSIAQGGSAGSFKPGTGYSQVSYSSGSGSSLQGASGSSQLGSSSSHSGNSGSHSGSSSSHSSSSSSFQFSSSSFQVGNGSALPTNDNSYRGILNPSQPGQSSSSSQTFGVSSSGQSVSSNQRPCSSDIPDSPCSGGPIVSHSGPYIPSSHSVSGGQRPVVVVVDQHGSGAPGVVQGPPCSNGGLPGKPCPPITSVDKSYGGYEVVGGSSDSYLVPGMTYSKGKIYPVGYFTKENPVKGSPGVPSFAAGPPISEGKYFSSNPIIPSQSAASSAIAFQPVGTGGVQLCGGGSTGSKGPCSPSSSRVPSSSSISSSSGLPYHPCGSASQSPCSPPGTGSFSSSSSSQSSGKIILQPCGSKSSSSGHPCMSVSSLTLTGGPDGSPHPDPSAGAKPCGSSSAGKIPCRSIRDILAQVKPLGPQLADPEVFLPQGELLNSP
# UniProt Q96G28: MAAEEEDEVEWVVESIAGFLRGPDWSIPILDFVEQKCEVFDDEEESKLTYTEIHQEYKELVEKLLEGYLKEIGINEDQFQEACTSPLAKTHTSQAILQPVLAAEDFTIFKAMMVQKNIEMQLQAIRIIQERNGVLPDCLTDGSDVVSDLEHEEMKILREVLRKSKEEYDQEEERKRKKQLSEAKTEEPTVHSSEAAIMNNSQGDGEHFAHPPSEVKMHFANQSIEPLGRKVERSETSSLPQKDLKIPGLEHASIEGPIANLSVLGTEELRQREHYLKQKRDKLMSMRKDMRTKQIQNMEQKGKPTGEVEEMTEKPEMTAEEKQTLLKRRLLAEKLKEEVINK
# UniProt P41208: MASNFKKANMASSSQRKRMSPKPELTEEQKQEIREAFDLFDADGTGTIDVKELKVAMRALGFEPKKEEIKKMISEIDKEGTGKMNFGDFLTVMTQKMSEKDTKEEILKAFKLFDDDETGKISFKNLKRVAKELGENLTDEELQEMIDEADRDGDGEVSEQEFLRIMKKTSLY
# UniProt Q8N2Z9: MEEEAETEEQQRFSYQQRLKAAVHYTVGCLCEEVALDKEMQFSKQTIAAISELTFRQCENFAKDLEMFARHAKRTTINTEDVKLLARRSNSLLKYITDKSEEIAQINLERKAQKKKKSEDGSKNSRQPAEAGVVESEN
# UniProt Q96JM3: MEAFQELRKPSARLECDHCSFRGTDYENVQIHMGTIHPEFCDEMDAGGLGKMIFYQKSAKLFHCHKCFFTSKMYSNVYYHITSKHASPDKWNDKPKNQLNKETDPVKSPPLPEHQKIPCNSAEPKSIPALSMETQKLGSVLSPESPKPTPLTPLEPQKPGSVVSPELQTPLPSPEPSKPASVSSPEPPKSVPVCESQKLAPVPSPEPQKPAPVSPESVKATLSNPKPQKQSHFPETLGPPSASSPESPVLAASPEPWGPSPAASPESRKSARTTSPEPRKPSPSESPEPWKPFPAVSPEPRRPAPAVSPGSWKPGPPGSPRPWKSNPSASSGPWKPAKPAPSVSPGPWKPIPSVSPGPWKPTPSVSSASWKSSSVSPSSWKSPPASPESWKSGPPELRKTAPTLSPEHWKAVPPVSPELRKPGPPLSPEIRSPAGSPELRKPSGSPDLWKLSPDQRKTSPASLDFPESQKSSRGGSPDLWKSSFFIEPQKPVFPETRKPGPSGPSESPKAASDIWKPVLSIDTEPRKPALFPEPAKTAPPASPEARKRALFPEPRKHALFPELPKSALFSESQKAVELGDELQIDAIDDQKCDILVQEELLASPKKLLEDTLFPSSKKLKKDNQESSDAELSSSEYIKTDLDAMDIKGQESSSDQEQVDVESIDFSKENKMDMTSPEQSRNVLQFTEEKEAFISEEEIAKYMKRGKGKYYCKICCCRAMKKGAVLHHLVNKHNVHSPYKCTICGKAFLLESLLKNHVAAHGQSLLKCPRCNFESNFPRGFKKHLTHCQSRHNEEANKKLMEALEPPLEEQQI
# UniProt Q8IW35: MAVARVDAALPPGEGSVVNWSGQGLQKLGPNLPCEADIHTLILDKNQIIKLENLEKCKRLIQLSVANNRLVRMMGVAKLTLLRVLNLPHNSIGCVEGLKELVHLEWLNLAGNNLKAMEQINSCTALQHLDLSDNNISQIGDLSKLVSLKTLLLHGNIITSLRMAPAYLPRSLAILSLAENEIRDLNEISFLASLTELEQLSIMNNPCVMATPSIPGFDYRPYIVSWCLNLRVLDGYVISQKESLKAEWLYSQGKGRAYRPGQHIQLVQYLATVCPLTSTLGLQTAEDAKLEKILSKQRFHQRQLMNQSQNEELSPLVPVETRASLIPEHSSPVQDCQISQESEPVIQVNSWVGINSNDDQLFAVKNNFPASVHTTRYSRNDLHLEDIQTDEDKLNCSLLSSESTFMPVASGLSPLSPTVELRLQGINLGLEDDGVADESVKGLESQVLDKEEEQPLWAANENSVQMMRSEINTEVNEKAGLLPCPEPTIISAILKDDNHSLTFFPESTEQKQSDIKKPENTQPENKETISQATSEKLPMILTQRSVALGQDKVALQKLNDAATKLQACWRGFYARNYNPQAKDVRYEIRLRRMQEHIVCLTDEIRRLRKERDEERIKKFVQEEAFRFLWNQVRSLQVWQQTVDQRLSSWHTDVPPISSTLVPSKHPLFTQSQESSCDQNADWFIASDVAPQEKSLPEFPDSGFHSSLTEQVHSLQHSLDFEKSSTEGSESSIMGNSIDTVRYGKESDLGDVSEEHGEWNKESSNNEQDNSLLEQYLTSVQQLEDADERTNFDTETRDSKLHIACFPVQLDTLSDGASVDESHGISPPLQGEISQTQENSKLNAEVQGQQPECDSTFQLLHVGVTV
# UniProt Q9H444: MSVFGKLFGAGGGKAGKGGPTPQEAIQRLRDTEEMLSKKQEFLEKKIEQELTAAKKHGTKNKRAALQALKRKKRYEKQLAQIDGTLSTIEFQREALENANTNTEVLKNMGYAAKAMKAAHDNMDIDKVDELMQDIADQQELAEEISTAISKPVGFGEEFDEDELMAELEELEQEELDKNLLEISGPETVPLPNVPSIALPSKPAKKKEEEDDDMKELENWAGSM
# UniProt Q96JB5: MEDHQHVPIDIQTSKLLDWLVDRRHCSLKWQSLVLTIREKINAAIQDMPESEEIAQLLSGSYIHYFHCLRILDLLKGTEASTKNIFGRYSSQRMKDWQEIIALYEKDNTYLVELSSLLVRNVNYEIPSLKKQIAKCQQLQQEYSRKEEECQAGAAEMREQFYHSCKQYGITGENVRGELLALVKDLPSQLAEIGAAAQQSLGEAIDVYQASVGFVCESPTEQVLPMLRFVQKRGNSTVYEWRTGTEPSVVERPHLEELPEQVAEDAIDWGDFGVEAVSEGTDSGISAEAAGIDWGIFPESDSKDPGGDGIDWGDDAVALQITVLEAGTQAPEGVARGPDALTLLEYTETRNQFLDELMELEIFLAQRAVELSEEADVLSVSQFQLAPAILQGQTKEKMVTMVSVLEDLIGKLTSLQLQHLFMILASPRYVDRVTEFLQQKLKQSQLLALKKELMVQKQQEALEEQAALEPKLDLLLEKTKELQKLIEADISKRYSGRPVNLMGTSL
# UniProt Q66GS9: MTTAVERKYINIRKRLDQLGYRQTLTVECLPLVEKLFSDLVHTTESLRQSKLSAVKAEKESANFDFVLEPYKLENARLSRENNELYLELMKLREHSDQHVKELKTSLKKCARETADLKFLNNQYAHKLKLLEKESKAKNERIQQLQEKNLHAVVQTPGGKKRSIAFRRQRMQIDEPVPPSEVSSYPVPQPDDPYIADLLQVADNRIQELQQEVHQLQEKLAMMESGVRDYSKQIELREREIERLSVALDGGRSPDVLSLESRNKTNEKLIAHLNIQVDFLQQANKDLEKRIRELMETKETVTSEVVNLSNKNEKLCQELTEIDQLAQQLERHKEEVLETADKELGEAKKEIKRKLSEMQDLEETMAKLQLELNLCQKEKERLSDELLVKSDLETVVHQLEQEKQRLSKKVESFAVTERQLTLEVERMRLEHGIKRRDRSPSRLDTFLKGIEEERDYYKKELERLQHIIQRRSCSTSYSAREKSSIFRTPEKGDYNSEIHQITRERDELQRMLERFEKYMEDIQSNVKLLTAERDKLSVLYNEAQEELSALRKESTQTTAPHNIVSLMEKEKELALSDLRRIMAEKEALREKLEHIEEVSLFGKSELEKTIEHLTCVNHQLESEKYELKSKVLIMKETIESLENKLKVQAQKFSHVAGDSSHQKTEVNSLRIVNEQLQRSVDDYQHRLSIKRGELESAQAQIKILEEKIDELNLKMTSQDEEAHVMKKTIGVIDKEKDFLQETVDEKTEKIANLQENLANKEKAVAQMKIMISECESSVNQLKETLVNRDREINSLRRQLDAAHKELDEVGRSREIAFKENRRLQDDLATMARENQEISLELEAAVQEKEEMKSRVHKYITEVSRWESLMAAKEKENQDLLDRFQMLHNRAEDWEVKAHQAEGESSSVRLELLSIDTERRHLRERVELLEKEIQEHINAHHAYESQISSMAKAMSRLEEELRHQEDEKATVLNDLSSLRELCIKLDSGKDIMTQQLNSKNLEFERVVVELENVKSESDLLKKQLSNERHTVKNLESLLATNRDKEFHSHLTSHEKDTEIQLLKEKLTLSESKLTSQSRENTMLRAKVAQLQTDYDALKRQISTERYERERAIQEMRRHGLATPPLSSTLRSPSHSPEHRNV
# Key:
# Assay in all cases: log2 fold change, soluble protein after heating vs DMSO (PISA); higher = thermal stabilisation; K562 cells, 10 uM, 30 min; active = over 0.2 and 3.5 SD of the protein, either way, in both replicates (recomputed)
# [1] = compound: CS(=O)(=O)c1ccc(-c2cnc(N)c(C(=O)Nc3ccccc3)n2)cc1
# Method in brief: (§1)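 Soluble protein was defined as the supernatant after 21,000xg for 90 min. It came from K562 cells at 2×10^6 cells/mL given 10 μM compound for 30 min, heated in aliquots for 3 min across 48°C-58°C, pooled, and extracted in PBS with 0.5% NP-40 at 4°C, and was quantified by TMTpro 16plex LC-MS/MS with equalised channel sums. Thermal stability against control samples, from duplicates, is reported as log2 fold change.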
# crizotinib = compound: C[C@@H](Oc1cc(-c2cnn(C3CCNCC3)c2)cnc1N)c1c(Cl)ccc(F)c1Cl [crizotinib]
# Method in brief: as §1
# [2] = compound: C[C@@H]1COCCN1C2=NC(=NC(=C2)C3(CC3)S(=O)(=O)C)C4=C5C=CNC5=CC=C4
# Method in brief: as §1
# [3] = compound: C[C@H](C1=CC=C(C=C1)C(=O)NC2=C3C=CNC3=NC=C2)N
# Method in brief: as §1
# gandotinib = compound: Cc1cc(Nc2cc(CN3CCOCC3)c3nc(C)c(Cc4ccc(Cl)cc4F)n3n2)n[nH]1 [gandotinib]
# Method in brief: as §1
# [4] = compound: Cc1cc(SCc2sc(-c3ccc(C(F)(F)F)cc3)nc2C)ccc1OCC(=O)O
# Method in brief: as §1
# doramapimod = compound: Cc1ccc(-n2nc(C(C)(C)C)cc2NC(=O)Nc2ccc(OCCN3CCOCC3)c3ccccc23)cc1 [doramapimod]
# Method in brief: as §1
# ispinesib = compound: Cc1ccc(C(=O)N(CCCN)[C@@H](c2nc3cc(Cl)ccc3c(=O)n2Cc2ccccc2)C(C)C)cc1 [ispinesib]
# Method in brief: as §1
# bafetinib = compound: Cc1ccc(NC(=O)c2ccc(CN3CC[C@H](N(C)C)C3)c(C(F)(F)F)c2)cc1Nc1nccc(-c2cncnc2)n1 [bafetinib]
# Method in brief: as §1
# [5] = compound: Cc1cccc(CC(=O)N2CCc3c2ccc(-c2cn(C)c4ncnc(N)c24)c3F)n1
# Method in brief: as §1
# nilotinib = compound: Cc1cn(-c2cc(NC(=O)c3ccc(C)c(Nc4nccc(-c5cccnc5)n4)c3)cc(C(F)(F)F)c2)cn1 [nilotinib]
# Method in brief: as §1
# [6] = compound: Cc1nc(Nc2n[nH]c3c2CN(C(=O)N[C@H](CN(C)C)c2ccccc2)C3(C)C)c2sccc2n1
# Method in brief: as §1
# dasatinib = compound: Cc1nc(Nc2ncc(C(=O)Nc3c(C)cccc3Cl)s2)cc(N2CCN(CCO)CC2)n1 [dasatinib]
# Method in brief: as §1
# [7] = compound: Cc1ncc(-c2ccnc(Nc3ccc(S(C)(=O)=O)cc3)n2)n1C(C)C
# Method in brief: as §1
# [8] = compound: Cn1cc(-c2ccc3c(c2)CCN3C(=O)Cc2cccc(C(F)(F)F)c2)c2c(N)ncnc21
# Method in brief: as §1
# [9] = compound: Cn1cc(-c2ccc3nnc(C(F)(F)c4ccc5ncccc5c4)n3n2)cn1
# Method in brief: as §1
# tipifarnib = compound: Cn1cncc1[C@@](N)(c1ccc(Cl)cc1)c1ccc2c(c1)c(-c1cccc(Cl)c1)cc(=O)n2C [tipifarnib]
# Method in brief: as §1
# mubritinib = compound: FC(F)(F)c1ccc(/C=C/c2nc(COc3ccc(CCCCn4ccnn4)cc3)co2)cc1 [mubritinib]
# Method in brief: as §1
# duvelisib = compound: C[C@H](Nc1ncnc2nc[nH]c12)c1cc2cccc(Cl)c2c(=O)n1-c1ccccc1 [duvelisib]
# Method in brief: as §1
# tozasertib = compound: Cc1cc(Nc2cc(N3CCN(C)CC3)nc(Sc3ccc(NC(=O)C4CC4)cc3)n2)n[nH]1 [tozasertib]
# Method in brief: as §1
Target,log2 fold change [1],log2 fold change (crizotinib),log2 fold change [2],log2 fold change [3],log2 fold change (gandotinib),log2 fold change [4],log2 fold change (doramapimod),log2 fold change (ispinesib),log2 fold change (bafetinib),log2 fold change [5],log2 fold change (nilotinib),log2 fold change [6],log2 fold change (dasatinib),log2 fold change [7],log2 fold change [8],log2 fold change [9],log2 fold change (tipifarnib),log2 fold change (mubritinib),log2 fold change (duvelisib),log2 fold change (tozasertib)
CDK9 isoform 2 (UniProt P50750),inactive: -0.017,inactive: -0.103,inactive: -0.075,inactive: 0.189,inactive: -0.054,inactive: 0.03,inactive: 0.066,inactive: -0.013,inactive: 0.039,inactive: 0.108,inactive: -0.045,inactive: -0.059,inactive: -0.011,inactive: 0.22,inactive: -0.091,inactive: -0.013,inactive: 0.068,inactive: -0.067,–,–
CENPH (UniProt Q9H3R5),inactive: 0.023,inactive: -0.142,inactive: 0.027,inactive: 0.315,–,inactive: 0.09,inactive: 0.003,inactive: -0.226,inactive: -0.03,–,inactive: 0.001,inactive: 0.014,inactive: -0.337,inactive: 0.029,inactive: -0.065,inactive: -0.089,inactive: -0.096,inactive: -0.046,inactive: 0.173,inactive: 0.106
CENPO (UniProt Q9BU64),inactive: -0.056,inactive: -0.037,inactive: 0.044,inactive: -0.029,–,inactive: -0.077,inactive: 0.097,inactive: 0.042,inactive: -0.002,–,inactive: -0.439,inactive: -0.358,inactive: -0.08,inactive: 0.169,inactive: -0.234,inactive: 0.161,inactive: 0.057,inactive: -0.2,inactive: 0.074,inactive: -0.018
CHAC2 (UniProt Q8WUX2),inactive: 0.026,inactive: 0.048,inactive: 0.021,inactive: -0.071,inactive: -0.014,inactive: 0.008,inactive: -0.021,inactive: 0.071,inactive: -0.052,inactive: -0.003,inactive: 0.078,inactive: -0.153,inactive: 0.012,inactive: 0.012,inactive: -0.004,inactive: -0.006,inactive: -0.037,inactive: 0.045,–,–
CERT isoform 3 (UniProt Q9Y5P4),inactive: 0.015,inactive: 0.102,inactive: 0.079,active: -0.327,inactive: 0.209,inactive: -0.047,inactive: 0.192,inactive: 0.109,inactive: 0.032,inactive: -0.08,inactive: 0.193,active: -0.397,inactive: 0.019,inactive: -0.11,inactive: 0.109,inactive: 0.021,inactive: 0.111,inactive: 0.117,–,–
CDSN (UniProt Q15517),inactive: 0.045,inactive: -0.08,inactive: 0.093,inactive: -0.113,inactive: 0.156,inactive: -0.533,inactive: -0.126,–,inactive: 0.298,inactive: 0.357,inactive: 0.072,inactive: 0.012,inactive: -0.956,inactive: 0.283,inactive: 0.928,–,inactive: 0.275,inactive: -0.379,inactive: -0.255,inactive: 0.111
CFAP36 isoform 2 (UniProt Q96G28),inactive: -0.013,inactive: -0.201,inactive: 0.078,active: -0.394,inactive: -0.048,inactive: -0.007,inactive: 0.096,inactive: -0.053,inactive: 0.022,inactive: -0.055,–,–,inactive: 0.014,–,inactive: -0.047,inactive: 0.128,inactive: 0.002,inactive: 0,–,active: 0.587
CHM (UniProt P24386),inactive: -0.119,inactive: 0.033,inactive: -0.002,inactive: -0.047,inactive: -0.091,inactive: 0.055,inactive: 0.03,inactive: 0.078,–,inactive: -0.011,–,–,inactive: -0.139,–,inactive: -0.019,inactive: 0.025,inactive: 0.078,inactive: 0.021,inactive: 0.063,inactive: -0.001
CEP192 (UniProt Q8TEP8),inactive: 0.055,inactive: 0.09,inactive: -0.038,inactive: 0.216,inactive: 0.016,inactive: -0.043,inactive: -0.092,–,inactive: -0.182,inactive: 0.037,inactive: -0.16,inactive: 0.045,inactive: 0.03,inactive: -0.138,inactive: -0.014,–,inactive: -0.199,inactive: 0.101,inactive: 0.123,inactive: -0.143
CETN2 (UniProt P41208),inactive: 0.011,inactive: 0.103,inactive: 0.066,inactive: 0.003,inactive: 0.041,inactive: -0.135,inactive: 0.017,inactive: 0.084,inactive: -0.029,inactive: -0.131,inactive: 0.071,inactive: -0.055,inactive: 0.081,inactive: -0.001,inactive: -0.013,inactive: 0.03,inactive: 0.216,inactive: 0.036,–,–
CENPS (UniProt Q8N2Z9),inactive: 0.047,inactive: 0.061,inactive: 0.024,inactive: 0.056,inactive: -0.008,inactive: 0.012,inactive: -0.11,–,inactive: -0.044,inactive: 0.124,inactive: -0.075,inactive: -0.003,inactive: -0.127,inactive: -0.017,inactive: 0.082,–,inactive: 0.006,inactive: 0.053,inactive: 0.1,inactive: 0.028
CHAMP1 (UniProt Q96JM3),inactive: 0.02,inactive: -0.154,inactive: 0.074,inactive: -0.071,inactive: -0.046,inactive: -0.049,inactive: -0.003,inactive: -0.185,inactive: -0.134,inactive: 0.049,inactive: 0,inactive: -0.132,inactive: -0.092,inactive: -0.123,inactive: 0.026,inactive: 0.067,inactive: 0.014,inactive: 0.056,–,–
CHERP (UniProt Q8IWX8),inactive: -0.087,inactive: -0.108,inactive: 0.109,inactive: 0.009,inactive: -0.047,inactive: 0.138,inactive: 0.01,inactive: -0.004,inactive: 0.057,inactive: 0.092,inactive: -0.13,inactive: -0.353,inactive: -0.086,inactive: 0.011,inactive: 0.011,inactive: 0.025,inactive: 0.005,inactive: -0.07,–,–
CEP97 isoform 2 (UniProt Q8IW35),inactive: 0.051,inactive: -0.171,inactive: 0.021,inactive: 0.296,–,inactive: -0.04,inactive: 0.097,inactive: -0.056,–,–,inactive: 0.119,inactive: -0.044,inactive: -0.099,inactive: 0.049,inactive: 0.057,inactive: -0.094,inactive: 0.056,–,inactive: -0.205,inactive: 0.098
CHD4 isoform 2 (UniProt Q14839),inactive: -0.02,inactive: -0.08,inactive: 0.098,inactive: 0.057,inactive: -0.009,inactive: 0.186,inactive: 0.014,inactive: -0.05,inactive: 0.068,inactive: -0.018,inactive: -0.143,inactive: -0.267,inactive: -0.059,inactive: -0.137,inactive: -0.063,inactive: -0.002,inactive: -0.083,inactive: -0.06,–,–
CHMP4B (UniProt Q9H444),inactive: -0.067,inactive: -0.036,inactive: -0.011,inactive: -0.022,inactive: -0.075,inactive: -0.014,inactive: 0.005,inactive: -0.008,inactive: -0.078,inactive: 0.061,inactive: -0.027,inactive: 0.007,inactive: 0.017,inactive: -0.023,inactive: 0.012,inactive: -0.013,inactive: 0.053,inactive: 0.051,–,–
CDK5RAP3 isoform 4 (UniProt Q96JB5),inactive: -0.017,inactive: -0.054,inactive: 0.044,inactive: -0.038,inactive: -0.051,inactive: 0.016,inactive: -0.033,inactive: -0.036,inactive: 0.039,inactive: 0.122,inactive: -0.094,inactive: 0.012,inactive: -0.082,inactive: 0.054,inactive: 0.008,inactive: 0.024,inactive: -0.052,inactive: 0.083,–,–
CEP135 (UniProt Q66GS9),inactive: 0.182,inactive: 0.019,inactive: 0.011,inactive: -0.074,inactive: 0.279,inactive: 0.042,inactive: 0.09,–,inactive: -0.199,inactive: 0.037,–,–,inactive: -0.11,–,inactive: 0.202,–,–,–,inactive: -0.052,–

# Random excerpt: two entries already listed
Target,log2 fold change [1],log2 fold change (crizotinib),log2 fold change [2],log2 fold change [3],log2 fold change (gandotinib),log2 fold change [4],log2 fold change (doramapimod),log2 fold change (ispinesib),log2 fold change (bafetinib),log2 fold change [5],log2 fold change (nilotinib),log2 fold change [6],log2 fold change (dasatinib),log2 fold change [7],log2 fold change [8],log2 fold change [9],log2 fold change (tipifarnib),log2 fold change (mubritinib),log2 fold change (duvelisib),log2 fold change (tozasertib)
CHAMP1 (UniProt Q96JM3),inactive: 0.02,inactive: -0.154,inactive: 0.074,inactive: -0.071,inactive: -0.046,inactive: -0.049,inactive: -0.003,inactive: -0.185,inactive: -0.134,inactive: 0.049,inactive: 0,inactive: -0.132,inactive: -0.092,inactive: -0.123,inactive: 0.026,inactive: 0.067,inactive: 0.014,inactive: 0.056,–,–
CHAC2 (UniProt Q8WUX2),inactive: 0.026,inactive: 0.048,inactive: 0.021,inactive: -0.071,inactive: -0.014,inactive: 0.008,inactive: -0.021,inactive: 0.071,inactive: -0.052,inactive: -0.003,inactive: 0.078,inactive: -0.153,inactive: 0.012,inactive: 0.012,inactive: -0.004,inactive: -0.006,inactive: -0.037,inactive: 0.045,–,–

# From the supplement of paper PMC10849652
